Drawing on publication PMC12326010, “Substrate accessibility regulation of human TopIIa decatenation by cohesin” (Nature Communications, 2025), this text covers binding for one substance.

For the assay, the target named is T1, Human cohesin subunit STAG1 with C-terminal 3C-ybbr-tev-strepII tag (human) (UniProt Q8WVM7).
T1 sequence: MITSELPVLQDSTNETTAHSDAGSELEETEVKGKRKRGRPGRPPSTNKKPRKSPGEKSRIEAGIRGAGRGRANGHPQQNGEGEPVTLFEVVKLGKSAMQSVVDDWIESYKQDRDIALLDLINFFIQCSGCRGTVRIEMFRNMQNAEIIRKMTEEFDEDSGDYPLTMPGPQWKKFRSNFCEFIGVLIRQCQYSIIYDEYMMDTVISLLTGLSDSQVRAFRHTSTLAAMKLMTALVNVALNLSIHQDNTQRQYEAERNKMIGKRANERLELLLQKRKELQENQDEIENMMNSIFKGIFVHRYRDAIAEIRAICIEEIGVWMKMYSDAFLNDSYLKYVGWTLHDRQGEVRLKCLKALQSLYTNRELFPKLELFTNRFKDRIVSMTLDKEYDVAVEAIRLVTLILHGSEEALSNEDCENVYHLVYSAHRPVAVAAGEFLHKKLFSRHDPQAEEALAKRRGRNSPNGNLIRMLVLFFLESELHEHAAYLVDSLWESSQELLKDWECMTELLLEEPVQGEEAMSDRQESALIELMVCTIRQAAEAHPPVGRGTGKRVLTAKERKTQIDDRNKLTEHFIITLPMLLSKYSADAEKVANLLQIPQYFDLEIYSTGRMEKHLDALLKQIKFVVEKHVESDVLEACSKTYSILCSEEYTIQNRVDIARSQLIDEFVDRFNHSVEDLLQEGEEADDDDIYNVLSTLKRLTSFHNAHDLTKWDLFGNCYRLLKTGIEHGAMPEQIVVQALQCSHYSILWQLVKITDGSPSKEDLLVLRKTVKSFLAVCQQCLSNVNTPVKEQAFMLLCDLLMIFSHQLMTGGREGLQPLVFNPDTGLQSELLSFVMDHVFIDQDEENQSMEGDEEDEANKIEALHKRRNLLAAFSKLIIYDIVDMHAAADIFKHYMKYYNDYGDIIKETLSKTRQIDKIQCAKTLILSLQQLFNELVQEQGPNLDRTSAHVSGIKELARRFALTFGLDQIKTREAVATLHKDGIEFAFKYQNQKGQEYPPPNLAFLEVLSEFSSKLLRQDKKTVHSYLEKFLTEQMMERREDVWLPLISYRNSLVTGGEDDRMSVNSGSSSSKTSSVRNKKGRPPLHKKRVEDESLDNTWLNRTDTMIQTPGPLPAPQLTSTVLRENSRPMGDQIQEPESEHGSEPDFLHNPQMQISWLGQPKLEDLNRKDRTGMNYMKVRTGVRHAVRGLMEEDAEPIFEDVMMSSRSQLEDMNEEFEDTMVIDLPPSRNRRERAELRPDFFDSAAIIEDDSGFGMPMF
The experiment in a line: co-purification (Strep affinity, heparin, size exclusion); cohesin STAG1 tetramer co-expressed in insect cells; lysate loaded on StrepTrap HP (StrepII on STAG1), eluted with desthiobiotin, HiTrap Heparin, Superose 6; 20 mM HEPES pH 8, 300 mM KCl, 5 mM MgCl2, 1 mM DTT, 10% glycerol. Background: SEC sorts molecules by how far they enter the pores of the column.

Results are given in words; binding and its absence hold for the method and conditions named. Binding seen in cells or lysates may run through a third protein. Binding calls can cover weak binding; strength is not graded here. Where a sequence is shown, tags or fusion partners need not be part of it.

Human cohesin subunit SMC1: the binding entry is reported as “binds”.
